Experimental data: publication PMC9090297
These are yes or no findings as the source states them, for the method shown. In cells and extracts the contact can be indirect. Some results given as binding are weak or reduced against the parent protein; the word gives no strength.

Sequences of proteins named here, by UniProt entry; tags and fusion partners are left off.
UniProt Q8K0V4: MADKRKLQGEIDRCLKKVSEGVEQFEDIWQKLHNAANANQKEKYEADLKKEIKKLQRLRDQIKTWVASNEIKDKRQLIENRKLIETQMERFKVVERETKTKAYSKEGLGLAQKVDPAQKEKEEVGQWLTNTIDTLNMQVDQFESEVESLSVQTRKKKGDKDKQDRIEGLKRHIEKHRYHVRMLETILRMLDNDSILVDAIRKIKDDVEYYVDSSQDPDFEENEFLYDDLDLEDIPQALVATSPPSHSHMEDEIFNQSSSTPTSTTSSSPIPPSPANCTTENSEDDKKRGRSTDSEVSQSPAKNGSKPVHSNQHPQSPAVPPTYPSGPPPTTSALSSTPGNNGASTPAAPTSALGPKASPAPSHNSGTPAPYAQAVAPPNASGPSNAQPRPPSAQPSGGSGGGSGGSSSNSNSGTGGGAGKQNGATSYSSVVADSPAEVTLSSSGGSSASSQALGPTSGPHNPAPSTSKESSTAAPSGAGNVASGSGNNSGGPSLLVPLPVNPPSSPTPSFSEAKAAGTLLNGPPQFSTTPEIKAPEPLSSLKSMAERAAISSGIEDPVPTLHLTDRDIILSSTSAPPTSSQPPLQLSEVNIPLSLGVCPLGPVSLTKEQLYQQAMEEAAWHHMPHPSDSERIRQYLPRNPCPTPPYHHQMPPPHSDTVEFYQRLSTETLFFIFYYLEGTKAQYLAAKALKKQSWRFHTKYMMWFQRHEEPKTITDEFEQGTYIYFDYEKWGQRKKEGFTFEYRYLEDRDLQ
UniProt Q6ZQ08: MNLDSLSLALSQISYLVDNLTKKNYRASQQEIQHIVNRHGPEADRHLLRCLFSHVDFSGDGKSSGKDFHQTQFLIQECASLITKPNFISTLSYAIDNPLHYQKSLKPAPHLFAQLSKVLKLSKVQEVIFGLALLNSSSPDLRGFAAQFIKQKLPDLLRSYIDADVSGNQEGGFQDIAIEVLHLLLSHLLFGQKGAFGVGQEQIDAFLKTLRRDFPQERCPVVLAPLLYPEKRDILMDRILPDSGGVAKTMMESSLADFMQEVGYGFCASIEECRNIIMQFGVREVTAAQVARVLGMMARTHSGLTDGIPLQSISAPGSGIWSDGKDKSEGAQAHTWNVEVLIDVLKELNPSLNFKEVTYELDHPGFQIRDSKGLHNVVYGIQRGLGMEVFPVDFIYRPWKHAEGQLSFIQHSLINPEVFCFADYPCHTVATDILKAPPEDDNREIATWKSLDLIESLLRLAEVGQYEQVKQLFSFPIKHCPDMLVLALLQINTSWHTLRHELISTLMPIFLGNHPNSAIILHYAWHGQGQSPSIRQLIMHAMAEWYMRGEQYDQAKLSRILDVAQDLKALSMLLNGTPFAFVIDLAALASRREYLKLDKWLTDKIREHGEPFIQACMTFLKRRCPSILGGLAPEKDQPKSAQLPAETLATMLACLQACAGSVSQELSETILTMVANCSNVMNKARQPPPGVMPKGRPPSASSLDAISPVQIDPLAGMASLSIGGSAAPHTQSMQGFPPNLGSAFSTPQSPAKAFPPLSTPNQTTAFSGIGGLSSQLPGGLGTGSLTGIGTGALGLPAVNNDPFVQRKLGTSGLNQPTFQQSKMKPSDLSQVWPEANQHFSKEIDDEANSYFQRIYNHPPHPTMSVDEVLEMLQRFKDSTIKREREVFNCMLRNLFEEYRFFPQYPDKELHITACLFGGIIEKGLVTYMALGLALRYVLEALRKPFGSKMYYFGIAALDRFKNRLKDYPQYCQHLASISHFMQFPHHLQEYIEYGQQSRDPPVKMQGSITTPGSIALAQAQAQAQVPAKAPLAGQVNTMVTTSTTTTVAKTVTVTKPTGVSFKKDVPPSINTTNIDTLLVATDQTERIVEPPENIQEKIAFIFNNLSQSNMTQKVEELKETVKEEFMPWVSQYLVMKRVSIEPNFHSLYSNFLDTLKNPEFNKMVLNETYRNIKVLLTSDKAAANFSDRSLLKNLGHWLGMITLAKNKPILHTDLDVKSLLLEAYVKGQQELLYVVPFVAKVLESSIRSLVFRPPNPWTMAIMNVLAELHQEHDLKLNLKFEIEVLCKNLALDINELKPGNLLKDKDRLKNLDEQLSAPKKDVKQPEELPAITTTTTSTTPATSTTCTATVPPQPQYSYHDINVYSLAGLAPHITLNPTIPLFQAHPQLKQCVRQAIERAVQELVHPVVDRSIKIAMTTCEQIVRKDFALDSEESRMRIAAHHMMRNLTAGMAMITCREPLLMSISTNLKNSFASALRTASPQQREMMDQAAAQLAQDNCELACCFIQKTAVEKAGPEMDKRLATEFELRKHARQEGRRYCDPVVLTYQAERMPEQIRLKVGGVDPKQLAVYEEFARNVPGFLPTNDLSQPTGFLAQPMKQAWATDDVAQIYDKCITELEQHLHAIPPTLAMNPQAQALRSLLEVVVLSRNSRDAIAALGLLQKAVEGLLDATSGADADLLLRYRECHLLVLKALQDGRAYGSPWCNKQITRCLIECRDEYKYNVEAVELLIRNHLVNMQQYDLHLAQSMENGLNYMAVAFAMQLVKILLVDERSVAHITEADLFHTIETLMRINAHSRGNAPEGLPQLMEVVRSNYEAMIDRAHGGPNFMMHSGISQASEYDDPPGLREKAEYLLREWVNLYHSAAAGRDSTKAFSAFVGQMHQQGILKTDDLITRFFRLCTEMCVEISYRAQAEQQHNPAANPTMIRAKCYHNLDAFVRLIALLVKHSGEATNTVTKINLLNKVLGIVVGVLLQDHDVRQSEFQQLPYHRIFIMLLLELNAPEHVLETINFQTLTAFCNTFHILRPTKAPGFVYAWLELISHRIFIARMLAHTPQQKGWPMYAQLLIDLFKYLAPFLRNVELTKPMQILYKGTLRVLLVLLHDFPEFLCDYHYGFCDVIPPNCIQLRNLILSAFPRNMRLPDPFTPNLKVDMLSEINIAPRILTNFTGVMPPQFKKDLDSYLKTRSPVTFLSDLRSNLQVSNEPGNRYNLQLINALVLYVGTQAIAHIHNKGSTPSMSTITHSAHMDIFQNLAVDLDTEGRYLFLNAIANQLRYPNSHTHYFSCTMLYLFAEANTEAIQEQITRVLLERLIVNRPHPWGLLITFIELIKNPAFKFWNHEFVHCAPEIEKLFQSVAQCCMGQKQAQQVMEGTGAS
UniProt Q60809: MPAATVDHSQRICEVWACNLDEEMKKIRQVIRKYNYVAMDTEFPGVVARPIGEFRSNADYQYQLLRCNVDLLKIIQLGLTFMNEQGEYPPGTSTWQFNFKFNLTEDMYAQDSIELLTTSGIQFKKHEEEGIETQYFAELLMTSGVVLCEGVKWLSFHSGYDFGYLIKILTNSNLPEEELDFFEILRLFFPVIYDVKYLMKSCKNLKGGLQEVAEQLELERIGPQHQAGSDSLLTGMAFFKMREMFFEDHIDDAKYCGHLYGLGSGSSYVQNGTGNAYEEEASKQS
UniProt Q9D8X5: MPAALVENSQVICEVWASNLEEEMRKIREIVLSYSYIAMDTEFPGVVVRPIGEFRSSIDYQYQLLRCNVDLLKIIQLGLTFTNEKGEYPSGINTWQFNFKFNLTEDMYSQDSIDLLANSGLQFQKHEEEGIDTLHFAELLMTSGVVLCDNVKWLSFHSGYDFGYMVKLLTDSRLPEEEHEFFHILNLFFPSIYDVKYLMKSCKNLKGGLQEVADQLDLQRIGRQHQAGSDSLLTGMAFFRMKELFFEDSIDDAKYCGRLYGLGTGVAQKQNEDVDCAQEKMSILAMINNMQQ

The substances below were run against CNOT3 (mouse (endogenous in liver)) (UniProt Q8K0V4) (assay: co-IP; anti-CNOT3 antibody on mouse liver lysate in TNE buffer (50 mM Tris-HCl pH 7.5, 150 mM NaCl, 1 mM EDTA, 1% NP40, 1 mM PMSF), Dynabeads Protein G, 4°C; control IgG in parallel; immunoblot of the precipitate).
For CNOT1 (from UniProt Q6ZQ08 1-2375), the binding was “binds”.
In the case of CNOT6L (from UniProt Q8VEG6 1-555), the binding is reported as “binds”.
With CNOT7 (from UniProt Q60809 1-285) the binding was “binds”.
In the case of CNOT8 (from UniProt Q9D8X5 1-292), the binding is reported as “binds”.
